System: mice
Conditions: mouse, in vivo
Method: Physical dependency liability was evaluated in mice by the procedure of Saelens, et al., Arch. Int. Pharmacodynam, 190:213-218, 1971. In this procedure, mice are administered increasing doses of a test compound at intervals on two consecutive days. The last dosage on the second day is followed by intraperitoneal injection of the morphine antagonist, naloxone, at a dosage of 100 mg/kg, and the mice are observed for characteristic jumping behaviour indicative of opiate withdrawals or morphine antagonism. […].

CN1CC[C@]23c4c5ccc(O)c4O[C@H]2[C@@H](O)C=C[C@H]3[C@H]1C5.O=S(=O)(O)O [morphine sulfate]
mice jumping after naloxone: 5 of 9

Source: patent US4265912A, “Glaucine lactate salts” (priority 1979, dated 1981)
